Results are given in words; binding and its absence hold for the method and conditions named. Binding seen in cells or lysates may run through a third protein. Binding can be weak; no strength is given.
Target: HA-tagged USP28 (UniProt Q96RU2)
Assay: co-IP

The chains behind the UniProt entries cited, without tags or fusion partners. Where a name states a change or a piece, a line headed by the entry shows the natural chain unless it says otherwise.
UniProt Q96RU2, whole entry, stated change not applied: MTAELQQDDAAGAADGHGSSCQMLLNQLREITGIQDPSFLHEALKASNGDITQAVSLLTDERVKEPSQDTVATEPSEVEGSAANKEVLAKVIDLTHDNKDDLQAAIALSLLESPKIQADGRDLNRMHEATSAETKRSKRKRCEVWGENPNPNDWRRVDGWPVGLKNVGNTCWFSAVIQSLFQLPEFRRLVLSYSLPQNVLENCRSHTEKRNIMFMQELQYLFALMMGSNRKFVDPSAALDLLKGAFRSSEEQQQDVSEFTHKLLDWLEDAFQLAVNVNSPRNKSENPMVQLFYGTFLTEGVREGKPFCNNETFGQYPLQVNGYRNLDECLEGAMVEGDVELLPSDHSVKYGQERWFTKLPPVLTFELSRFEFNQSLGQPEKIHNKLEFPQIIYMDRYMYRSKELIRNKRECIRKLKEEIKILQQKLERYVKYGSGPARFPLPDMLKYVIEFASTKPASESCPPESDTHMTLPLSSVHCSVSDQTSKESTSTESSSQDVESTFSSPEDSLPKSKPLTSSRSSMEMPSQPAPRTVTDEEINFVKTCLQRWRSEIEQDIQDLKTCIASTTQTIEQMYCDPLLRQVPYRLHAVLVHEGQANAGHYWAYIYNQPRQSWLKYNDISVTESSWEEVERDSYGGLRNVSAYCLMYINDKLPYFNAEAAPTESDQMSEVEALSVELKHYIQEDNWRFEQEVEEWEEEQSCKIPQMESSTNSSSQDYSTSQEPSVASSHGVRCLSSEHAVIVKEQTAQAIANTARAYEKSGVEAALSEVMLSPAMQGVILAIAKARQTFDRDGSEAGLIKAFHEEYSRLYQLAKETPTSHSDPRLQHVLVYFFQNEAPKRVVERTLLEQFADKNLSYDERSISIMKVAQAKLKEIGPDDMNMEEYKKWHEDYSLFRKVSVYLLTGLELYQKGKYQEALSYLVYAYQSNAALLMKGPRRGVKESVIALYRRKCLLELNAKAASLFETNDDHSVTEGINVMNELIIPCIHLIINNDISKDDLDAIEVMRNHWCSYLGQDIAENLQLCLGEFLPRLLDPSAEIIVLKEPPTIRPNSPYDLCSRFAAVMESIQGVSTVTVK

- binding: binds
Substance: FLAG-tagged ΔNp63 (from UniProt Q9H3D4-2)

— article doi:10.1101/683508
